Data as given in publication PMC4945746.
Results are given in words; binding and its absence hold for the method and conditions named. In cells and extracts the contact can be indirect. Some binding calls cover weakened binding; strength is not graded here.

Chains of the proteins cited; added tags and fusions are not shown.
UniProt Q14209: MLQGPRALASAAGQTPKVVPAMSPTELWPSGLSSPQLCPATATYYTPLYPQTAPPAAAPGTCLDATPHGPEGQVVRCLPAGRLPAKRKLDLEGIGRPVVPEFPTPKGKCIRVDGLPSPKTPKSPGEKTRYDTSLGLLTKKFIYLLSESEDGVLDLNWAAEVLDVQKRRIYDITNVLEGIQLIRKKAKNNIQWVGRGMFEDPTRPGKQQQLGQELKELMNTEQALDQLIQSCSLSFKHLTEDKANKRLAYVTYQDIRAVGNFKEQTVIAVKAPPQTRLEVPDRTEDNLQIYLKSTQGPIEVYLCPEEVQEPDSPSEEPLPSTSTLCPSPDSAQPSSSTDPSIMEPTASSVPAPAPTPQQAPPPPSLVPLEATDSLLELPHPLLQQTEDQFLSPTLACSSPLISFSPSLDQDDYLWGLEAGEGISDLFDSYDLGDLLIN

What was measured:
Experiment in all cases: co-IP; protein extracts (0.2 mg) of HepG2 or Huh7 cells treated with siANCCA or siCtrl, incubated with anti-E2F2, anti-ERO1L or anti-G3BP2 antibody overnight at 4 °C, protein A/G-Sepharose, washed three times with lysis buffer (0.5% deoxycholate, 0.2% SDS, 1% Triton X-100, 5 mM EDTA); blot with ANCCA/PRO2000 antiserum
[1] = molecular target: T1, Ras-GTPase-activating protein-SH3-domain-binding protein 2 (G3BP2) (human (endogenous in HepG2)) (UniProt Q9UN86)
T1 sequence: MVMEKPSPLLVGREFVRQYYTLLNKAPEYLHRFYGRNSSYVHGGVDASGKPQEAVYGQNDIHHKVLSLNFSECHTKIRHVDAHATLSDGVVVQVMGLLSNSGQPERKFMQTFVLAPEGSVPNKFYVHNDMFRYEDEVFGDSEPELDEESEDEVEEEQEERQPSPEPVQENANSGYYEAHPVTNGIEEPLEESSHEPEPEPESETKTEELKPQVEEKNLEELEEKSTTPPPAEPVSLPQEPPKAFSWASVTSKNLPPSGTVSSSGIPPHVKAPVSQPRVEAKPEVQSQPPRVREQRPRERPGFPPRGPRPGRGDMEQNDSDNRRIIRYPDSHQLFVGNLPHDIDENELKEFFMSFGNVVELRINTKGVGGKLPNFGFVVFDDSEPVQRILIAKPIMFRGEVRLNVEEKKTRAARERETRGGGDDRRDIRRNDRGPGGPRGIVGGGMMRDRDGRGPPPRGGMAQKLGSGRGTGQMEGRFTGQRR

[2] = molecular target: T2, endoplasmic reticulum oxidoreductin 1 (ERO1L) (human (endogenous in HepG2)) (UniProt Q96HE7)
T2 sequence: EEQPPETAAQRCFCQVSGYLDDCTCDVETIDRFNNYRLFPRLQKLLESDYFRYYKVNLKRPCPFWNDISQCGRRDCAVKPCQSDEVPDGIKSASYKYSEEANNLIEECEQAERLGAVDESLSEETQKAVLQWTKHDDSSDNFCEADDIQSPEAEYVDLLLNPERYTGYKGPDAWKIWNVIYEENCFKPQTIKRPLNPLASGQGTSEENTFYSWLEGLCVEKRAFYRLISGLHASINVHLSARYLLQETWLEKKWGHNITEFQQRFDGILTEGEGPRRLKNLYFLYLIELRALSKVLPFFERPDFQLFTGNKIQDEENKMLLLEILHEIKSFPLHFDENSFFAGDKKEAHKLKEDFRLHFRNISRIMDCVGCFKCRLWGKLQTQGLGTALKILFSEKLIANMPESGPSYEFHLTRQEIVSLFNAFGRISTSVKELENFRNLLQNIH

[3] = molecular target: E2F2 (human (endogenous in HepG2 and Huh7)) (UniProt Q14209)

Measured: binding

B1: AAA nuclear coregulator cancer-associated protein (ANCCA/PRO2000) (protein, UniProt Q6PL18 1-1390)
chain: MVVLRSSLELHNHSAASATGSLDLSSDFLSLEHIGRRRLRSAGAAQKKPAATTAKAGDGSSVKEVETYHRTRALRSLRKDAQNSSDSSFEKNVEITEQLANGRHFTRQLARQQADKKKEEHREDKVIPVTRSLRARNIVQSTEHLHEDNGDVEVRRSCRIRSRYSGVNQSMLFDKLITNTAEAVLQKMDDMKKMRRQRMRELEDLGVFNETEESNLNMYTRGKQKDIQRTDEETTDNQEGSVESSEEGEDQEHEDDGEDEDDEDDDDDDDDDDDDDDEDDEDEEDGEEENQKRYYLRQRKATVYYQAPLEKPRHQRKPNIFYSGPASPARPRYRLSSAGPRSPYCKRMNRRRHAIHSSDSTSSSSSEDEQHFERRRKRSRNRAINRCLPLNFRKDELKGIYKDRMKIGASLADVDPMQLDSSVRFDSVGGLSNHIAALKEMVVFPLLYPEVFEKFKIQPPRGCLFYGPPGTGKTLVARALANECSQGDKRVAFFMRKGADCLSKWVGESERQLRLLFDQAYQMRPSIIFFDEIDGLAPVRSSRQDQIHSSIVSTLLALMDGLDSRGEIVVIGATNRLDSIDPALRRPGRFDREFLFSLPDKEARKEILKIHTRDWNPKPLDTFLEELAENCVGYCGADIKSICAEAALCALRRRYPQIYTTSEKLQLDLSSINISAKDFEVAMQKMIPASQRAVTSPGQALSTVVKPLLQNTVDKILEALQRVFPHAEFRTNKTLDSDISCPLLESDLAYSDDDVPSVYENGLSQKSSHKAKDNFNFLHLNRNACYQPMSFRPRILIVGEPGFGQGSHLAPAVIHALEKFTVYTLDIPVLFGVSTTSPEETCAQVIREAKRTAPSIVYVPHIHVWWEIVGPTLKATFTTLLQNIPSFAPVLLLATSDKPHSALPEEVQELFIRDYGEIFNVQLPDKEERTKFFEDLILKQAAKPPISKKKAVLQALEVLPVAPPPEPRSLTAEEVKRLEEQEEDTFRELRIFLRNVTHRLAIDKRFRVFTKPVDPDEVPDYVTVIKQPMDLSSVISKIDLHKYLTVKDYLRDIDLICSNALEYNPDRDPGDRLIRHRACALRDTAYAIIKEELDEDFEQLCEEIQESRKKRGCSSSKYAPSYYHVMPKQNSTLVGDKRSDPEQNEKLKTPSTPVACSTPAQLKRKIRKKSNWYLGTIKKRRKISQAKDDSQNAIDHKIESDTEETQDTSVDHNETGNTGESSVEENEKQQNASESKLELRNNSNTCNIENELEDSRKTTACTELRDKIACNGDASSSQIIHISDENEGKEMCVLRMTRARRSQVEQQQLITVEKALAILSQPTPSLVVDHERLKNLLKTVVKKSQNYNIFQLENLYAVISQCIYRHRKDHDKTSLIQKMEQEVENFSCSR
binds: all assays above
